Source: patent US20130157289A1
Results are given in words; binding and its absence hold for the method and conditions named. Some entries that bind do so weakly or less than the wild type.

Protein sequences, listed by entry. Tags and fused reporters are not part of them. Lines headed by an entry give the natural chain unless they say otherwise; changes in a name come on top.
UniProt Q9UHE8: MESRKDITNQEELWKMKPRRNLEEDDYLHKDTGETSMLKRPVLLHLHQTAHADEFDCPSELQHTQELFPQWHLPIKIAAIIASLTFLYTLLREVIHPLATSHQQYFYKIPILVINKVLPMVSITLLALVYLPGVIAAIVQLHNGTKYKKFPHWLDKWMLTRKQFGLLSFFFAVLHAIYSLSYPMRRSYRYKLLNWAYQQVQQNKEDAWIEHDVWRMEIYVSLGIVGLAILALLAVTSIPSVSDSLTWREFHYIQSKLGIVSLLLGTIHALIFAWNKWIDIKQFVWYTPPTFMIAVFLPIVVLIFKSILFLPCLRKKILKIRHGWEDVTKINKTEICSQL

Experiments:
[1] = molecular target: human STEAP-1 (human) (UniProt Q9UHE8); assay: FACS of display-normalised Fab phage, aligned histograms; no cell name on the panel, traces as in FIG. 6A (LB50)
[2] = molecular target: cynomolgus monkey STEAP-1 (cynomolgus monkey); assay: FACS
[3] = molecular target: human STEAP-1 (human) (UniProt Q9UHE8); assay: FACS on PC3 Steap1 PS5.4 cells (exogenous human STEAP-1)
[4] = molecular target: human STEAP-1 (human) (UniProt Q9UHE8); assay: FACS on 293 STEAP-1 NT LB50 cells
[5] = molecular target: human STEAP-1 (human) (UniProt Q9UHE8); assay: FACS on LNCAP BR cells (endogenous human STEAP-1)
[6] = molecular target: cynomolgus monkey STEAP-1 (cynomolgus monkey); assay: FACS on cells expressing cynomolgus monkey STEAP-1 (panel head CYNO)
[7] = molecular target: human STEAP-1 (human) (UniProt Q9UHE8); assay: FACS on cells expressing human STEAP-1 (panel head HUMAN)
[8] = molecular target: human STEAP-1 (human) (UniProt Q9UHE8); assay: FACS on cells expressing STEAP-1
[9] = molecular target: human STEAP-1 (human) (UniProt Q9UHE8); assay: FACS of IgG on STEAP-1 expressing cells
[10] = molecular target: human STEAP-1 (human) (UniProt Q9UHE8); assay: FACS on 293 Steap1 LB50 cells (exogenous human STEAP-1)

Measured: binding

B1: 37,48 Phage (Fab, V domains shown)
VH: EVQLVESGGGLVQPGGSLRLSCAASGYSITSDYAWNWIRQAPGKGLEWMGYISNSGSTSYNPSLKSRFTISRDNSKNTLYLQMNSLRAEDTAVYYCARERNYDYDDYYYAMDYWGQGTLVTVSS
VL: DIQMTQSPSSLSASVGDRVTITCKSSQSLLYRSNQKNYLAWYQQKPGKAPKLLIYWASTRESGVPSRFSGSGSGTDFTLTISSLQPEDFATYYCQQYYNYPRTFGQGTKVEIKR
binds: [1]

B2: 120 chimera (antibody, V domains shown)
VH: DVQVQESGPGLVKPSQSLSLTCTVTGYSITSDYAWNWIRQFPGNKLEWMGYISNSGSTSYNPSLKSRISITRDTSKNQFFLQLISVTTEDTATYYCARERNYDYDDYYYAMDYWGQGTTLTVSA
VL: DIVMSQSPSSLAVSVGEKVTMSCKSSQSLLYRSNQKNYLAWYQQKPGQSPKLLIYWASTRESGVPDRFTGSGSGTDFTLTISSVKAEDLAVYYCQQYYNYPRTFGGGTKVEIK
binds: [2] | [3] | [4] | [5] | [6] | [7] | [8] | [9] | [10]
